Literature values as cited in US20140171436A1, “TREATMENT OF ANTIFOLATE NEUROTOXICITY” (Syntrix Biosystems, Inc., priority 2003, published 2014).
Where “and” joins values, the source holds several entries; their conditions need not be identical. Identical values can stand only once. At least one compound was matched to its structure with a doubt left.

Key:
[1] = in words; 'No' = none known; cited from earlier work
[2] = molecular target: NMDA receptor; settings: read-out: Ki NMDAR; cited from earlier work

| SMILES | Other known affinity [1] | Ki [2] |
| --- | --- | --- |
| COC(=O)[C@H]1[C@@H](OC(=O)c2ccccc2)C[C@@H]2CC[C@H]1N2C [Cocaine] | Dopamine transporter | – |
| CN1CC[C@@]23CCCC[C@@H]2[C@@H]1Cc1ccc(O)cc13 [dextrorphan] | – | 1000 nM and 900 nM |
